In article doi:10.1101/2020.05.12.092270 one finds binding data, which are given here for 1 substance.

Protein sequences, listed by entry. Tags and fused reporters are not part of them. Lines headed by an entry give the natural chain unless they say otherwise; changes in a name come on top.
UniProt Q07955: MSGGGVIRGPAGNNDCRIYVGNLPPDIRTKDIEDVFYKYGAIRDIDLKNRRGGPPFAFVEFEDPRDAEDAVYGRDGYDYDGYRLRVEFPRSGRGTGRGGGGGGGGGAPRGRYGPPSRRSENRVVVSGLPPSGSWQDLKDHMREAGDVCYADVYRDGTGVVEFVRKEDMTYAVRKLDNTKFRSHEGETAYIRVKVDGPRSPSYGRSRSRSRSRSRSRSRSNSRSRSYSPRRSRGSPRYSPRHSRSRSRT
UniProt Q9NRR4: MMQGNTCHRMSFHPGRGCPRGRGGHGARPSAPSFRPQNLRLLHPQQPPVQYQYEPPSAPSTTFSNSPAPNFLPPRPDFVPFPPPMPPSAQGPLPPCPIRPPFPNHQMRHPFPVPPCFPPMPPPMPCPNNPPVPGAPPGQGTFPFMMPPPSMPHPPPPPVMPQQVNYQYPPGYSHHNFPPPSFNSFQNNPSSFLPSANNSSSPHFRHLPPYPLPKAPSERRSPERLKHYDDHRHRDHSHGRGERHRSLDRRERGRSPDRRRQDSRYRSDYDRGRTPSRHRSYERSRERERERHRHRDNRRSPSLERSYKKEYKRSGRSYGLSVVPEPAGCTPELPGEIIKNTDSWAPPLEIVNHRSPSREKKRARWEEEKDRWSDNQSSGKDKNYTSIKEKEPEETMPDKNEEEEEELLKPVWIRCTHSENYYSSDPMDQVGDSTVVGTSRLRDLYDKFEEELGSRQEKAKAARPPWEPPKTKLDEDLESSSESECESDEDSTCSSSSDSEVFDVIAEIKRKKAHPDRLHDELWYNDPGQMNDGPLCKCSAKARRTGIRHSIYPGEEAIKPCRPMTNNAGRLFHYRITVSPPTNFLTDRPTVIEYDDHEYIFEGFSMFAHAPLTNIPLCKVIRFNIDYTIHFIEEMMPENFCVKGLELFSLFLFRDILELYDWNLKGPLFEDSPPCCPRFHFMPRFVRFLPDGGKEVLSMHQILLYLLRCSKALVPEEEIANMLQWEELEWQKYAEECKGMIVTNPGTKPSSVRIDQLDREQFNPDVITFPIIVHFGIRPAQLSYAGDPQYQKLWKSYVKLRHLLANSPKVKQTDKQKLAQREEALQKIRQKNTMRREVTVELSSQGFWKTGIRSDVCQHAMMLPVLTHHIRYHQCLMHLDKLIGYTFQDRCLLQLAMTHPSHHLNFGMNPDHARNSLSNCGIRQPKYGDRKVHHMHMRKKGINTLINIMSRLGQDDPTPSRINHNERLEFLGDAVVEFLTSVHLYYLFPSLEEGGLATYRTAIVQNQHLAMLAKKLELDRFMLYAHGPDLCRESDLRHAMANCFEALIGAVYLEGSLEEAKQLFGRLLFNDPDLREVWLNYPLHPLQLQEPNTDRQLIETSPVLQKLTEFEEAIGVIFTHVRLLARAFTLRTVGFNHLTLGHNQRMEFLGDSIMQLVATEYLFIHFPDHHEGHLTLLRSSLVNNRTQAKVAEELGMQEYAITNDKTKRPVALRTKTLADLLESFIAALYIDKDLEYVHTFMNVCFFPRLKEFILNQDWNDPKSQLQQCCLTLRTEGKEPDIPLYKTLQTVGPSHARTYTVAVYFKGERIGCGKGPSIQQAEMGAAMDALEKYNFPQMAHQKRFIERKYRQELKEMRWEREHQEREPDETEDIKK

Results are given in words; binding and its absence hold for the method and conditions named. Binding seen in cells or lysates may run through a third protein.

The target in this experiment is T7-SRSF1 (UniProt Q07955). The experiment can be described thus: co-IP.

Take “Microprocessor complex consisting of Drosha and DGCR8 (from UniProt Q9NRR4 1-1374; Q8WYQ5 1-773)”: the binding entry is given as “no binding”.
